{"source": "patent US5162499A", "about": "(Heterocyclic Research, Inc., priority 1991, dated 1992)", "experiment": "general procedure: Boc solid-phase peptide synthesis; PAM Methionine, t-BOC resin (0.67 mmol/gm); BOC amino acid symmetric anhydrides (DCC); HOBZ for Asn", "details": "cyclisation step, on linear precursor"}
{"substance": "Cyclo (D-Ala-L-Ala-Ser-Ser-Ser-Asn-Tyr-Met)", "values": [{"measurement": "cyclisation yield", "result": 31, "unit": "%"}]}
